Source: paper PMC9491610
Positions count from the first letter of the chain named. These are yes or no findings as the source states them, for the method shown. Binding seen in cells or lysates may run through a third protein. Some results given as binding are weak or reduced against the parent protein; the word gives no strength.

Protein sequences, listed by entry. Tags and fused reporters are not part of them. Lines headed by an entry give the natural chain unless they say otherwise; changes in a name come on top.
UniProt P09733: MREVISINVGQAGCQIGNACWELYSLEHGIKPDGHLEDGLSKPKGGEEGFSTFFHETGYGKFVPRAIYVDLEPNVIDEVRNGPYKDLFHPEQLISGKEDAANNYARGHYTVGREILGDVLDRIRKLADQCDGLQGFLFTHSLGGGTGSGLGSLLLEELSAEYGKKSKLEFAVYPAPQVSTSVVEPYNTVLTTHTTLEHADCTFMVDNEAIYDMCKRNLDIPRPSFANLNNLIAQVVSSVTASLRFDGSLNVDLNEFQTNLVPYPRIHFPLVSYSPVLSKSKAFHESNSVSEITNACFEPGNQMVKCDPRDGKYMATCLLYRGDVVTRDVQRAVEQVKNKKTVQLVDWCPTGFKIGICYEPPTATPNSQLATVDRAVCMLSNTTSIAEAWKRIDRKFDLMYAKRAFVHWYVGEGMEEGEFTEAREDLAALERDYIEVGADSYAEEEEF

Assays:
[1] = molecular target: T1, Stu2-K469Q-3xHA (S. cerevisiae) (UniProt P46675); test: co-IP; Stu2-HA precipitated with anti-HA magnetic beads from 67 mg cryo-milled yeast extract in PEM buffer (80 mM PIPES, 1 mM EGTA, 1 mM MgCl2, pH 6.8); precipitate blotted with anti α-tubulin (anti-Tub1) as surrogate for αβ-tubulin
T1 sequence: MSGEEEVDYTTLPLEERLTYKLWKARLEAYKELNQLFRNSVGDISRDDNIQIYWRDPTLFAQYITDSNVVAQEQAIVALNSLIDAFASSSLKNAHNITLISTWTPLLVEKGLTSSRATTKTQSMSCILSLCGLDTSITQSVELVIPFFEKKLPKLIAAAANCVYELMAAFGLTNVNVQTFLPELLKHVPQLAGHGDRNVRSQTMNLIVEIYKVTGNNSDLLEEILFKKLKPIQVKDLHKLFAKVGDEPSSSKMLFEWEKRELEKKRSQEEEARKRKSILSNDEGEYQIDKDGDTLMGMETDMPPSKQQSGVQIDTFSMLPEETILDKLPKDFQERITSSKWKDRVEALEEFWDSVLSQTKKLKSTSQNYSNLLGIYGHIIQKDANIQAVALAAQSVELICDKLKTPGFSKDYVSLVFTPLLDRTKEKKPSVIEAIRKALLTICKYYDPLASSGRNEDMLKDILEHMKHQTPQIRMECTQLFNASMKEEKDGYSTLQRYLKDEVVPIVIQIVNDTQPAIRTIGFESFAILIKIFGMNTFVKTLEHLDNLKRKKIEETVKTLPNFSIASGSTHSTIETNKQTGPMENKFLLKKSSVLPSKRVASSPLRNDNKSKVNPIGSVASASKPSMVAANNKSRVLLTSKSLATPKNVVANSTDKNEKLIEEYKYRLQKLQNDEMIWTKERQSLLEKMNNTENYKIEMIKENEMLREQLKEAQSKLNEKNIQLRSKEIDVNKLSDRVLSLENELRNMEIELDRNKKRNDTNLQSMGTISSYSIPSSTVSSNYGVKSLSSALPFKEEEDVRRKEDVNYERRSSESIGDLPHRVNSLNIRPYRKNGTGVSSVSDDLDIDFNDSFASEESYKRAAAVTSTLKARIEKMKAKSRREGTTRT

[2] = molecular target: T2, Stu2-K870R-3xHA (S. cerevisiae) (UniProt P46675); test: as above
T2 sequence: T1 sequence with Q469K, K870R

- binding [1]: binds
- binding [2]: binds
Substance: αβ-tubulin heterodimer (from UniProt P09733 1-447; P02557 1-457) (complex)
